From PubChem BioAssay AID2685 (National Center for Advancing Translational Sciences (NCATS), 2010)
The campaign covered roughly 320,000 compounds. About 2,100 (0.66%) were called active. Inconclusive means that the source gave no clear call. Such entries were picked first, then a sample of the others. Calls come from the whole dose curve; as a rule, active = well fitted inhibition curve with a large enough effect in the signal ratio, with a control signal flat (not every such curve was filed as active); inconclusive = small, poorly fitted or top-dose-only effect, or effect the other way, or a change in a side signal; inactive = flat fitted curve, though single readings scatter; the % refers to the signal ratio. A potency beside an inconclusive call is a rough fit, not a confirmed value.

Test: qHTS Assay for Lipid Storage Modulators in Drosophila S3 Cells
Conditions: BODIPY lipid droplet fluorescence, 18-24 h, cells fed with added oleic acid; lipid storage change, negative = inhibition: at 46.1 µM (top of the series) unless noted
How it was run: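 Laser-scanning cytometry quantifies lipid droplet accumulation (500–530 nm total intensity; droplet/cell object ratio) in oleic acid-fed (400 uM added) Drosophila S3 cells treated with a concentration series. 20 uM Triacsin C defined 100% inhibition.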
% is set by controls: 0 for no effect and ±100 for the full control effect; potency is the fitted concentration of half-maximal effect.

SMILES | Potency | lipid storage change, negative = inhibition | outcome
O=C(CN1C(=O)/C(=C\c2ccccc2Br)Oc2ccccc21)NCCCN1CCOCC1 | inconclusive: 13 µM [activator, partial curve, poor fit] |  | 
Cc1cc(=O)oc2ccc(OCC(=O)N3CCC(C)CC3)cc12 | inconclusive: 6.51 µM [rising, single point] |  | 
O=C(O)C1(Cc2nc3ccccc3[nH]2)CCCC1 |  | inconclusive: -27% | 
CCOC(=O)c1c(C)oc2cc(Br)c(OC)cc12 |  | inconclusive: 18% | 
O=C(COC(=O)C1=COCCO1)Nc1ccc(OC(F)F)cc1 |  | inconclusive: -7.86% | 
Cn1nnc2c[n+](CC(=O)c3ccc4ccccc4c3)cc(Br)c21 |  | inconclusive: -16.8% | 
COc1ccc2nc(N/C(N)=N/C(=S)Nc3ccc(C)c(C)c3)nc(C)c2c1 | inconclusive: 0.0065 µM [activator, full curve, poor fit] |  | 
Cc1ccc(NC(=O)C2CCN(S(=O)(=O)c3cccc(C(F)(F)F)c3)CC2)nc1 |  | inconclusive: -10.7% | 
O=C(CCSc1nnc(-c2ccncc2)o1)Nc1ccc(F)cc1 |  | inconclusive: 16.7% | 
O=C(CCNC(=O)c1ccco1)Nc1ccc(Cl)cc1F | inconclusive: 4.11 µM [falling, single point] |  | 
Cc1ccc(C)c(Cn2c(C(C)O)nc3ccccc32)c1 (stereo not drawn) | inconclusive: 23.1 µM [activator, partial curve, poor fit] |  | 
O=C(NCCc1ccccn1)/C(=C/c1ccco1)NC(=O)c1ccccc1 |  | inconclusive: -2.12% | 
CCc1noc(C)c1C(=O)NNC(=O)c1nn(C)c(=O)c2ccccc12 | inconclusive: 2.91 µM [falling, single point] |  | 
Cc1ccc(-c2nc(CS(=O)(=O)CC(=O)NC3CCCCCC3)c(C)o2)cc1 | inconclusive: 29.1 µM [falling, single point] |  | 
CCOC(=O)c1sc2nc(C)n(CC(=O)NCC3CCCO3)c(=O)c2c1C (stereo not drawn) |  | inconclusive: -8.94% | 
Cc1nc(Sc2nnnn2-c2ccccc2)c(C#N)c(C)c1C |  | inconclusive: 2.56% [at 9.22 µM] | 
Cc1cc([N+](=O)[O-])nn1CCCC(=O)NC1CCCCC1 | inconclusive: 0.58 µM [activator, single point] |  | 
COc1ccc([N+](=O)[O-])cc1NS(=O)(=O)c1cc(C(=O)N2CCN(C)CC2)ccc1OC | inconclusive: 23.1 µM [falling, partial curve] |  | 
CCC(=O)/C(=C(/O)c1ccccc1)c1nc2ccccc2[nH]1 | inconclusive: 29.1 µM [activator, single point] |  | 
O=S(=O)(c1ccc(Cl)c(NC(=S)N/N=C/c2c(F)cccc2F)c1)N1CCOCC1 |  | inconclusive: -21.3% | 
COC(=O)c1ccc(NC(=O)c2ccc[n+]([O-])c2)cc1 |  | inconclusive: -56.2% | 
O=C(Oc1ccc(Br)cc1)c1cncc(Br)c1 |  | inconclusive: -11.8% | 
O=C(NC(=O)N1CCN(C(c2ccccc2)c2ccccc2)CC1)c1ccccc1 |  | inconclusive: 21.5% | 
O=C(Nc1ncccn1)c1ccc(Cl)c([N+](=O)[O-])c1 | inconclusive: 1.46 µM [falling, partial curve] |  | 
COc1ccc(-c2cc(C(=O)OCC(=O)c3cccc([N+](=O)[O-])c3)c3cc(C)ccc3n2)cc1 |  | inconclusive: 6.93% | 

SMILES | Potency | lipid storage change, negative = inhibition | outcome
O=C1c2cccc3cccc(c23)C(=O)N1CCN1CCN(CC(O)COCc2ccc(Cl)cc2)CC1 (stereo not drawn) | inconclusive: 29.1 µM [falling, single point] |  | 
CC(C)c1nc(CNC(=O)C2CCC(=O)N(CCc3cccc(F)c3)C2)cs1 (stereo not drawn) |  | inconclusive: -44.2% | 
CCOc1ccc(C(=O)OCC(=O)Nc2ccc(SC(F)F)cc2)cc1OCC |  | inconclusive: 19% | 
CC(=C/c1ccccc1)/C=N/n1c(-c2ccncc2)n[nH]c1=S |  | inconclusive: -37.5% [at 0.00295 µM] | 
CC(=O)Nc1ccc(NC(=O)CSc2nc3nc(C)cc(C)c3c(=O)[nH]2)cc1 |  | inconclusive: 86.3% | 
CC(C(=O)Nc1nc(-c2ccc(F)c(F)c2)cs1)N1C(=O)C2CC=CCC2C1=O (stereo not drawn) | inconclusive: 4.11 µM [falling, full curve, poor fit] |  | 
COc1ccc(CNC(=O)C2CCC(=O)N(CCCN3CCCC3=O)C2)cc1 (stereo not drawn) |  | inconclusive: 25.4% | 
CC(C)(C)S(=O)(=O)c1cnc2c(S(=O)(=O)c3ccccc3)cnn2c1N |  | inconclusive: 12.6% | 
O=C1/C(=N\S(=O)(=O)c2cccs2)C([n+]2cccc(Cc3ccccc3)c2)=C([O-])c2ccccc21 | active: 20.6 µM |  | 
CN(C)S(=O)(=O)c1ccc(N2CCCC2)c(C(=O)NNC(=O)COc2ccccc2Cl)c1 |  | inconclusive | 
COc1cccc(C(=O)CC(=O)C(=O)Nc2cc(OC)ccc2OC)c1 |  | inconclusive: 8.25% | 
COc1ccc(/C=N/n2cc(-c3ccccc3)nc2N)cc1 |  | inconclusive: 56.3% | 
Cc1nonc1OCCNc1ccc([N+](=O)[O-])cc1 | inconclusive: 23.1 µM [activator, partial curve, poor fit] |  | 
O=Cc1ccc(OCc2nnsc2Cl)cc1 |  | inconclusive: -17.5% | 
NC(=O)COC(=O)CNC(=O)c1ccc(Cl)cc1 |  | inconclusive: -0.743% | 
C=CCNc1nnnc2c1sc1nc(N3CCOCC3)c3c(c12)CCCC3 | inconclusive: 4.11 µM [activator, single point] |  | 
O=C(NCc1ccco1)c1ccc([N+](=O)[O-])cc1Cl | inconclusive: 20.6 µM [activator, single point] |  | 
Cn1c(=O)c(NCCc2ccccc2)c2c3c(cccc31)C(=O)c1ccccc1-2 |  | inconclusive: -100% | 
Fc1ccccc1CSc1nnc(Cn2cnc3ccccc32)n1-c1ccccc1 | inconclusive: 0.651 µM [falling, partial curve] |  | 
CC(C)C(=O)Nc1nnc(-c2ccccc2)o1 |  | inconclusive: -33.4% | 
CN(C)c1ccc(CNC(=O)c2cc(S(=O)(=O)N3CCCC3)cn2C)cc1 |  | inconclusive: -30.5% | 
O=C(Nc1ccc(N2CCN(C(=O)c3ccco3)CC2)cc1)c1cccc(F)c1 |  | inconclusive: -23.7% | 
CC(C)(C)NC(=O)NC(=O)CSc1n[nH]c(-c2ccccc2Br)n1 |  | inconclusive: 13.2% | 
Cc1cccc(-n2cc3c(=O)n(C)c(=O)n(C)c3c2)c1 |  | inconclusive: -6.42% | 
COc1cccc(-n2nnnc2SCC(=O)Nc2cccc(C)n2)c1 |  | inconclusive: -49.6% | 

Some of these compounds in order of molar mass, high to low:
SMILES | Potency | lipid storage change, negative = inhibition | outcome
CN(C)S(=O)(=O)c1ccc(N2CCCC2)c(C(=O)NNC(=O)COc2ccccc2Cl)c1 |  | inconclusive | 
CC(C)c1nc(CNC(=O)C2CCC(=O)N(CCc3cccc(F)c3)C2)cs1 (stereo not drawn) |  | inconclusive: -44.2% | 
CC(C)(C)S(=O)(=O)c1cnc2c(S(=O)(=O)c3ccccc3)cnn2c1N |  | inconclusive: 12.6% | 
Cc1cccc(-n2cc3c(=O)n(C)c(=O)n(C)c3c2)c1 |  | inconclusive: -6.42% | 
O=Cc1ccc(OCc2nnsc2Cl)cc1 |  | inconclusive: -17.5% | 

Additional records:

SMILES | Potency | lipid storage change, negative = inhibition | outcome
O=C(CN1C(=O)NC2(CCc3ccccc32)C1=O)NCCc1ccccc1 (stereo not drawn) |  | inconclusive: 49.2% | 
C=C(C)COc1ccc2c(C)c(CCC(=O)N3C[C@H]4C[C@@H](C3)c3cccc(=O)n3C4)c(=O)oc2c1 | inconclusive: 0.13 µM [activator, full curve, poor fit] |  | 
O=C(NCc1ccc(Cl)cc1)c1ccc(OCC2CCCO2)cc1 (stereo not drawn) |  | inconclusive: 24.5% | 
O=C(CCNC(=O)c1ccc(Br)cc1)NCCCSc1ccccc1 |  | inconclusive | 
O=C(NCc1ccco1)C(c1ccccc1)N(Cc1cccnc1)C(=O)Cn1nnc2ccccc21 (stereo not drawn) | inconclusive: 8.2 µM [activator, partial curve, poor fit] |  | 
Nn1c(SCCOc2ccccc2)nnc1-c1cccnc1 |  | inconclusive: 18.6% | 
N#C/C(=C(/O)CCl)c1nnc2n1CCCCC2 | inconclusive: 6.51 µM [cytotoxic, single point] |  | 
Cc1ccccc1OCCC(=O)OCC(=O)NC1CCCCC1 |  | inconclusive: 6.15% | 
Cc1ccc(NS(=O)(=O)c2ccc(NC(=O)c3cccc(NC(=O)C(C)C)c3)cc2)cc1 | inconclusive: 29.1 µM [activator, single point] |  | 
CC(C)C(C(=O)NCC1CCCO1)N(Cc1ccccc1)C(=O)CNS(=O)(=O)c1ccccc1 (stereo not drawn) | inconclusive: 0.92 µM [falling, single point] |  | 
CC(=O)NC(Cc1ccc(C)cc1)C(=O)NC1CCN(C(=O)NCc2ccccc2)CC1 (stereo not drawn) |  |  | inactive [at 46.1 µM]
COc1cc(C(=S)N2CCCC2)cc(OC)c1O |  | inconclusive: 0.0431% | 
COCCN1C2=C(C(=O)CC(C)(C)C2)C(c2ccc(OC)c(OC)c2)C2=C1CC(C)(C)CC2=O |  | inconclusive: 47.8% | 
CCN(C(=O)c1cc2c(C)nc3ccccc3c2o1)c1cc(Cl)ccc1OC | inconclusive: 0.411 µM [rising, full curve, poor fit] |  | 
CC(=O)c1ccc(N2CCN(C(=O)C3(S(=O)(=O)c4ccc(Cl)cc4)CC3)CC2)cc1 | inconclusive: 1.3 µM [falling, full curve] |  | 
Cc1nnc(NC(=O)CSc2nccn2Cc2ccc(F)cc2)s1 | inconclusive: 16.4 µM [activator, partial curve] |  | 
Cc1ccccc1S(=O)(=O)N1CCN(C)CC1 | inconclusive: 29.1 µM [activator, single point] |  | 
CC(=O)N1CCN(Cc2nc3cc(NS(C)(=O)=O)ccc3n2C)CC1 | inconclusive: 0.164 µM [falling, full curve, poor fit] |  | 
COC(=O)c1cc(S(=O)(=O)C(C)C)c(S(C)=O)s1 (stereo not drawn) |  | inconclusive: -64.6% | 
COc1cc(S(=O)(=O)Nc2ccc(C)cc2)ccc1NC(=O)c1ccncc1 | inconclusive: 29.1 µM [falling, single point] |  | 
COc1ccc(S(=O)(=O)N2CCc3ccccc3C2)cc1OC |  | inconclusive: 7.28% | 
Cc1cc(C)c(S(=O)(=O)N2CCOC2CNC(=O)C(=O)NCCN(C)C)c(C)c1 (stereo not drawn) |  | inconclusive: -7% | 
O=C(O)CCN1C(=O)c2ccccc2C1=O | inconclusive: 16.4 µM [cytotoxic, single point] |  | 

A portion taken from the entries so far, as a working copy:
SMILES | Potency | lipid storage change, negative = inhibition | outcome
O=C(NCc1ccc(Cl)cc1)c1ccc(OCC2CCCO2)cc1 (stereo not drawn) |  | inconclusive: 24.5% | 
O=C(CCNC(=O)c1ccc(Br)cc1)NCCCSc1ccccc1 |  | inconclusive | 
